These results are taken from paper PMC7641331, “Ctf18-RFC and DNA Pol ϵ form a stable leading strand polymerase/clamp loader complex required for normal and perturbed DNA replication” (Nucleic Acids Research, 2019).

Construct, isoform or probe ends are uncertain for at least one entry. For some of these results: Negatives hold for the conditions tested. For some of these results: At least one verdict rests on a figure or table, not on a statement of the authors. For some of these results: Weaker means in comparison with the reference protein, sequence or condition of that experiment.

Assay in all cases: EMSA
On the technique in general: In EMSA bound probe runs differently from free probe, usually more slowly.

Series [1] deals with Ctf18-1-8 Ctf18-RAA V730R,R731A,K732A. The settings on record: 250 nM protein, no Pol2CAT; EMSA: 25 mM HEPES pH 7.5, 60 mM KCl, 10% glycerol, 1 mM TCEP, 50 nM P1P2*, 20 min on ice, 6% Tris-glycine gel at 4 C; recombinant protein; label: 5' Cy3 on P1.
In series [2] the test system is Ctf18-1-8 Ctf18-RAA + Dcc1-3A V730R,R731A,K732A,K364A,R367A,R380A. The settings on record: 250 nM protein, no Pol2CAT; EMSA: 25 mM HEPES pH 7.5, 60 mM KCl, 10% glycerol, 1 mM TCEP, 50 nM P1P2*, 20 min on ice, 6% Tris-glycine gel at 4 C; recombinant protein; label: 5' Cy3 on P1.
Series [3] has as its system Ctf18-1-8 wild type (Ctf18 C-terminal fragment/Dcc1/Ctf8). The settings on record: no Pol2CAT, Ctf18-1-8/DNA band shown at 2 uM, not at 250 nM; EMSA: 25 mM HEPES pH 7.5, 60 mM KCl, 10% glycerol, 1 mM TCEP, 50 nM P1P2*, 20 min on ice, 6% Tris-glycine gel at 4 C; recombinant protein; label: 5' Cy3 on P1.
The subject of series [4] is Ctf18-1-8 Dcc1-3A K364A,R367A,R380A. The settings on record: 250 nM protein, no Pol2CAT; EMSA: 25 mM HEPES pH 7.5, 60 mM KCl, 10% glycerol, 1 mM TCEP, 50 nM P1P2*, 20 min on ice, 6% Tris-glycine gel at 4 C; recombinant protein; label: 5' Cy3 on P1.

With “TAACCGCGTTC / CTCTTGAACGCGGTTA [P1P2* primer-template]”, the binding result in series [1] is recorded as “no binding”; in series [2] it was “no binding”; in series [3], “binds more weakly”; in series [4], “no binding”.
